Reference: patent US20100184636A1
These are yes or no findings as the source states them, for the method shown. For some assays here: In cells and extracts the contact can be indirect. Some entries that bind do so weakly or less than the wild type.

The chains behind the UniProt entries cited, without tags or fusion partners. Where a name states a change or a piece, a line headed by the entry shows the natural chain unless it says otherwise.
UniProt O14939: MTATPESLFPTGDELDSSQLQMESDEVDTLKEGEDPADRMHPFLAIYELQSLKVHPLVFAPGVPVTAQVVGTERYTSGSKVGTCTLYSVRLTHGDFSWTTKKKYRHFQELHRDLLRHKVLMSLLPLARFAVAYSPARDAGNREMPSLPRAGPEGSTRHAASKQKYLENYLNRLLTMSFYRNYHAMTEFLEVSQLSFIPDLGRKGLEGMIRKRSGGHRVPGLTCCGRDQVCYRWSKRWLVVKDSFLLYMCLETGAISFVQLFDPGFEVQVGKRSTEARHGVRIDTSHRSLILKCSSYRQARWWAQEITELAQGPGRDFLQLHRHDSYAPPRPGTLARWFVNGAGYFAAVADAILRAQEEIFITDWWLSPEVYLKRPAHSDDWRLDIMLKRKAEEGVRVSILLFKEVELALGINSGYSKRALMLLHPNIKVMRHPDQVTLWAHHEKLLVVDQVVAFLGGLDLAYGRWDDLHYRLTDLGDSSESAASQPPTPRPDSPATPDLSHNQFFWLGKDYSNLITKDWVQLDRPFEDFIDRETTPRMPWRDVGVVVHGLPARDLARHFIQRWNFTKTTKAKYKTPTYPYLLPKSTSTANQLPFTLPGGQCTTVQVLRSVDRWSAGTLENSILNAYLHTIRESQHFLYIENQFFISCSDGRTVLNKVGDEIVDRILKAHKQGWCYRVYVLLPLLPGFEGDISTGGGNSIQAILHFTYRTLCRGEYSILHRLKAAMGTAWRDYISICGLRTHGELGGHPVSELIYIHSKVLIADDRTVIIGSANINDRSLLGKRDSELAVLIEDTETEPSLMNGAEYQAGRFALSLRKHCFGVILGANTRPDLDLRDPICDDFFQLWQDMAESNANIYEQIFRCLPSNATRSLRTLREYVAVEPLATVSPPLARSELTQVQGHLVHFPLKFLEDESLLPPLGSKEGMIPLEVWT

Legend:
[1] = target: phospholipase D2, wild type (PLD2^wt) (Homo sapiens) (UniProt O14939); test: method not described
HA-raptor^wt (human) = HA-raptor^wt (human) (UniProt Q8N122); test: co-IP with anti-HA antibody from COS7 lysates, CHAPS lysis (FIG. 13)

binding (HA-raptor^wt (human)) | Substance | binding [1]
– | Rheb (from UniProt Q15382 1-184) | binds
binds | myc-S6K1 (from UniProt P23443 1-502) (enzyme) | –
